Laboratory results taken from US20190022241A1.
These are yes or no findings as the source states them, for the method shown. Some binding calls cover weakened binding; strength is not graded here.

The chains behind the UniProt entries cited, without tags or fusion partners. Where a name states a change or a piece, a line headed by the entry shows the natural chain unless it says otherwise.
UniProt Q53EL9: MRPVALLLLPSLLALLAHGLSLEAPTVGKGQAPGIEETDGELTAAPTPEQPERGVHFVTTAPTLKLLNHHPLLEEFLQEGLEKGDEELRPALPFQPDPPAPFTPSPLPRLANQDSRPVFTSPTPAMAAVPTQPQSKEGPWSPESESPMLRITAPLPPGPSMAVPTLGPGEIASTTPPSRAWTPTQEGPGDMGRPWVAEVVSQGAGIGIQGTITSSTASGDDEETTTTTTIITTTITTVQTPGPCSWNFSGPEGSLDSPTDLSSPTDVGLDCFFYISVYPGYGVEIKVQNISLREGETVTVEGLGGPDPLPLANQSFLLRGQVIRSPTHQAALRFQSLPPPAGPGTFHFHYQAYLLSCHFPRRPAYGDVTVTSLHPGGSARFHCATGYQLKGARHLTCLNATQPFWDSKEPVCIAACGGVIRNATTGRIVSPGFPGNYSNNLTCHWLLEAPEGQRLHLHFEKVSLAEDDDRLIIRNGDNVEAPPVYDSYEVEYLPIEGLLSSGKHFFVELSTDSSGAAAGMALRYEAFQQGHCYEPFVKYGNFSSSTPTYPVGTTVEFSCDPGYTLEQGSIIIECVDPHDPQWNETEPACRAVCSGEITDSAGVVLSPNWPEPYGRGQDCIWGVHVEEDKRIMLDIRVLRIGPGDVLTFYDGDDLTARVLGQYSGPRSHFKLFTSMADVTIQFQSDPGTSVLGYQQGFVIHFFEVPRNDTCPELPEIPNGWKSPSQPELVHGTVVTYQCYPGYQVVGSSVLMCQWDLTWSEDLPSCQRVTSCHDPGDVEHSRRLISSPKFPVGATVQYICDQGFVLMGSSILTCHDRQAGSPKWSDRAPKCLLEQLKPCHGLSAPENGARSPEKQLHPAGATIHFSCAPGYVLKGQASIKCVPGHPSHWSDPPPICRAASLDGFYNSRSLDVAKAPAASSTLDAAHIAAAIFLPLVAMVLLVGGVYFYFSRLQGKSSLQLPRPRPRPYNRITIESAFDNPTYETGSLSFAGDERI
UniProt Q7TSK2: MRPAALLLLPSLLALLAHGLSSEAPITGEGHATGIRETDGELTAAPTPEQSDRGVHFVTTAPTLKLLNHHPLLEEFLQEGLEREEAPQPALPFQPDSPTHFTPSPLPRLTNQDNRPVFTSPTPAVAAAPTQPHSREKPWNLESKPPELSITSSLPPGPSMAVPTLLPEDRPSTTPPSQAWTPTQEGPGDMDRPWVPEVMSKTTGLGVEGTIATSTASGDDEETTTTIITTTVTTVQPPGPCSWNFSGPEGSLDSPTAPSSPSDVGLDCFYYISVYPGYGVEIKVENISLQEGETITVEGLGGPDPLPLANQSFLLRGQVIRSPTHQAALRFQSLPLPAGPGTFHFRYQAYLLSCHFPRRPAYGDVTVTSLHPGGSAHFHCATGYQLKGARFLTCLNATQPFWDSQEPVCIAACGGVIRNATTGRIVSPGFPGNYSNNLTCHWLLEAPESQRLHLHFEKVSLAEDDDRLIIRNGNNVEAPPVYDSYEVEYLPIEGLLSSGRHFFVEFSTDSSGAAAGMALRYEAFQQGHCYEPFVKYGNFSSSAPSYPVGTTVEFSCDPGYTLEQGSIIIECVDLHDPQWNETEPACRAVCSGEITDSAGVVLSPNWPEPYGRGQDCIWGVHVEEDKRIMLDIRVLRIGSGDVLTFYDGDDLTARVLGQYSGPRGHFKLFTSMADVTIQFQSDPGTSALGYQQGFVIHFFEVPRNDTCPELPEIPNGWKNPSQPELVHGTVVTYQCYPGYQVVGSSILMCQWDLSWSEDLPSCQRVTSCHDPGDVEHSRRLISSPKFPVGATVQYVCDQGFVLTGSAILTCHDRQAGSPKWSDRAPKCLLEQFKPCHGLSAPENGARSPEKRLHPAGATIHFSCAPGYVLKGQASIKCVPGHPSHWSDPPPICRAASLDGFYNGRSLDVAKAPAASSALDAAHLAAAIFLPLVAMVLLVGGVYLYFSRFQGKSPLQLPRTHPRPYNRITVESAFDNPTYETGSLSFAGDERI

Assays:
[1] = target: SEZ6 Sushi Domain 4 (amino acids 750-813) on yeast (human) (UniProt Q53EL9); test: yeast display, flow cytometry
[2] = target: SEZ6 N3 (aa 170-335) on yeast (human) (UniProt Q53EL9); test: yeast display, flow cytometry
[3] = target: human SEZ6 on NTX tumor cells (human) (UniProt Q53EL9); test: flow cytometry, LU100 NTX tumor cells
[4] = target: mouse SEZ6 on Neuro2a cells (mouse) (UniProt Q7TSK2); test: flow cytometry, Neuro2a cells, 5 ug/mL antibody
[5] = target: rat SEZ6 on RIN-m5F cells (rat); test: flow cytometry, RIN-m5F cells, 5 ug/mL antibody
[6] = target: human SEZ6 on HEK-293T cells (human) (UniProt Q53EL9); test: flow cytometry; format for human SEZ6 not detailed
[7] = target: human SEZ6 on NTX tumor cells (human) (UniProt Q53EL9); test: flow cytometry on LU64 NTX tumor cells co-stained for CD324; gray filled = isotype control of the bulk population
[8] = target: extracellular domain of cynomolgus SEZ6 on yeast (cynomolgus); test: flow cytometry, yeast displaying cynomolgus SEZ6 ECD, 5 ug/mL antibody

Measured: binding

B1: SC17.166 (antibody, V domains shown)
VH: EVQLQQSGPELMKPGASVKMSCKASGYIFTDYNMHWVKQNQGKSLEWIGEVNPNTGGIGYNQKFKGKATLTVDKSSSTAYMDLRSLTSEDSAVYYCARDGNYCFDYWGQGTTLTVSS
VL: QIVLTQSPAIMSASPGEKVTMTCSASSSISYMHWYQQKSGTSPKRWIYDTSKLASGVPARFSGSGSGTSYSLTISNMEAEDAATYYCQQWSSTPPTFGGGTKLEIK
binds: [1]

B2: SC17.42 (antibody, V domains shown)
VH: DVKLVESGGGLVRPGGSLKLSCAASGFTFSRYTMSWVRQTPEKRLEWAATINSGGSNTYYPDSVKGRFTISRDNAKNTLFLQMSSLKSEDTAMYYCTNGNHWGQGTTLTVSS
VL: ENVLTQSPAIMSASPGEKVTMTCSASSSVNYMYWYQQKSSTSPKLWIYDTSKLTSGVPGRFSGSGSGNSYSLTISNMEAEDVATYYCFQGSGYPLTFGSGTKLEIK
binds: [2] | [3] | [4] | [5] | [6] | [7]

B3: SC17.45 (antibody, V domains shown)
VH: QVQLQQPGSVLVRPGDSVKLSCKASGYTFTSYWMHWVKQSPGQGLEWIGEIHPHSGSTNYNEKFKGKATLTVDTSSSTAYVDLSSLTSEDSAVYYCVGGHYDYWGQGTTLTVSS
VL: ENVLTQSPAIMSASPGEKVTMTCSASSSVNYMYWYQQKSSTSPKLWIYDTSKLTSGVPGRFSGSGSGNSYSLTISNMEAEDVATYYCFQGSGYPLTFGSGTKLEIK
binds: [6] | [8]
